{
  "sequences": {"note": "The chains behind the UniProt entries cited, without tags or fusion partners. Where a name states a change or a piece, a line headed by the entry shows the natural chain unless it says otherwise.", "UniProt P07293": "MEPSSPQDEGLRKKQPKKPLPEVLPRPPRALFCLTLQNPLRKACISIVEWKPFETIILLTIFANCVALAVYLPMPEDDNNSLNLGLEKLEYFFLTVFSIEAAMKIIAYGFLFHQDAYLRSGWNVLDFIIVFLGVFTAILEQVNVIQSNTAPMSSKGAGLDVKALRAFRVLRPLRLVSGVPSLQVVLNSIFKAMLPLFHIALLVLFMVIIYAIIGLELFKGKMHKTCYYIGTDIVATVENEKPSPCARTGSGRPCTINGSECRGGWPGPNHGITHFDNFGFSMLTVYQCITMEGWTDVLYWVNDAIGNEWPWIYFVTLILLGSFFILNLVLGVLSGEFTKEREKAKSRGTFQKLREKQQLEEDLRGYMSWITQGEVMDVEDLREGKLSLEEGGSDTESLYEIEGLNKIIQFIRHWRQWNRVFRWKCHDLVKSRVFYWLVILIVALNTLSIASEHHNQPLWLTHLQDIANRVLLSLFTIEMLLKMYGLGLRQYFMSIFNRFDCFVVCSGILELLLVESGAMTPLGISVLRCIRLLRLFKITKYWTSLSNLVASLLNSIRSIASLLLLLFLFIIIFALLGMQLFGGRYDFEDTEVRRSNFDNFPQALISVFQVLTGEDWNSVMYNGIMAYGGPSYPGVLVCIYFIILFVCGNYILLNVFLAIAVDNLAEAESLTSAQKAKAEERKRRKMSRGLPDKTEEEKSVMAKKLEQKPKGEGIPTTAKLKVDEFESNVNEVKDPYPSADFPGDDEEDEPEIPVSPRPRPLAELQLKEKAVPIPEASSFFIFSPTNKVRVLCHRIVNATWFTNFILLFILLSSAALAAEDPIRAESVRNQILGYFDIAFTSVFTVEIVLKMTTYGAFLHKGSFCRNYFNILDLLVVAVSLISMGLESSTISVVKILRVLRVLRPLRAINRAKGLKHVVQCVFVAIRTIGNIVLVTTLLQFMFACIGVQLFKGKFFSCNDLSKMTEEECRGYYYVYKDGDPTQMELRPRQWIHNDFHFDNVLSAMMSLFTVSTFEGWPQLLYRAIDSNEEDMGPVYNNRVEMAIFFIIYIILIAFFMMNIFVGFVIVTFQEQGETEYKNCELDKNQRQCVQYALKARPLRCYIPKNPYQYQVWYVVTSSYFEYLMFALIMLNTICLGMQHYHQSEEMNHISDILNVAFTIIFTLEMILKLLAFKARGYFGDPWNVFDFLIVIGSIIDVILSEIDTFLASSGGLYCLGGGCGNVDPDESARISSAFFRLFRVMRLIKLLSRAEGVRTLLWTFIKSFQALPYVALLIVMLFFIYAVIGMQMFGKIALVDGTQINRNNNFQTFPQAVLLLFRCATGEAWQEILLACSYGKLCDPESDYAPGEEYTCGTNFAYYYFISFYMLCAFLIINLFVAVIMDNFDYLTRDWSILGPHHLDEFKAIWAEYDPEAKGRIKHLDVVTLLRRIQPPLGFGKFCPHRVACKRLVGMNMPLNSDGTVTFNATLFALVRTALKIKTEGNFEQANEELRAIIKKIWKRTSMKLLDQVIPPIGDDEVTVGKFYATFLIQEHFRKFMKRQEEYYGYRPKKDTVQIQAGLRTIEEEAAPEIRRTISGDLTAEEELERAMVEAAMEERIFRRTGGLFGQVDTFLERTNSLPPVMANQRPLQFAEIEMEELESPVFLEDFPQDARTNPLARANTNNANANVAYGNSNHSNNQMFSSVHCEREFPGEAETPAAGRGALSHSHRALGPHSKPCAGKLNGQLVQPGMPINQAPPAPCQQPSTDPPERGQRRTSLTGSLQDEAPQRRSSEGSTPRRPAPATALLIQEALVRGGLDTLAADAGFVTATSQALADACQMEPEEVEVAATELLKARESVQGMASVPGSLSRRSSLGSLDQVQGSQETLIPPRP"},
  "source": "paper PMC9019556",
  "about": "“Molecular interactions of STAC proteins with skeletal muscle dihydropyridine receptor and excitation‐contraction coupling” (Protein Science : A Publication of the Protein Society, 2022)",
  "biological_target": "full-length II–III loop of the skeletal muscle dihydropyridine receptor α1S subunit (UniProt P07293)",
  "test": "NMR titration; 1H-15N HSQC of 0.17 mM 15N-labelled II–III loop titrated with STAC3SH3s up to 1:1; 27 mM NaH2PO4, 30 mM Na2HPO4, 200 mM KCl, pH 6.5; 5°C; peak intensities; both purified",
  "note": "These are yes or no findings as the source states them, for the method shown. Binding can be weak; no strength is given.",
  "data": [
    {"binder": "tandem SH3 domains of STAC3 (SH3 and cysteine-rich domain-containing protein 3) (domain or fragment, human, human STAC3, tandem SH3 domains (SH3_1 and SH3_2) at the C-terminal end; Used unlabelled (SPR, titrant in NMR) and 15N-labelled (NMR titration with the C3 peptide); also called STAC3SH3s) GFQQSHYFVALYRFKALEKDDLDFPPGEKITVIDDSNEEWWRGKIGEKVGFFPPNFIIRVRAGERVHRVTRSFVGNREIGQITLKKDQIVVQKGDEAGGYVKVYTGRKVGLFPTDFLEEI", "values": [
      {"measurement": "binding", "value": "binds"}
    ]}
  ]
}
